{
  "source": "paper PMC8325274",
  "binders": {"B1": {"name": "TRF1 with HA-Flag double tags, P54274 1-439 (protein)", "chain": "MAEDVSSAAPSPRGCADGRDADPTEEQMAETERNDEEQFECQELLECQVQVGAPEEEEEEEEDAGLVAEAEAVAAGWMLDFLCLSLCRAFRDGRSEDFRRTRNSAEAIIHGLSSLTACQLRTIYICQFLTRIAAGKTLDAQFENDERITPLESALMIWGSIEKEHDKLHEEIQNLIKIQAIAVCMENGNFKEAEEVFERIFGDPNSHMPFKSKLLMIISQKDTFHSFFQHFSYNHMMEKIKSYVNYVLSEKSSTFLMKAAAKVVESKRTRTITSQDKPSGNDVEMETEANLDTRKSVSDKQSAVTESSEGTVSLLRSHKNLFLSKLQHGTQQQDLNKKERRVGTPQSTKKKKESRRATESRIPVSKSQPVTPEKHRARKRQAWLWEEDKNLRSGVRKYGEGNWSKILLHYKFNNRTSVMLKDRWRTMKKLKLISSDSED"}},
  "molecular_target": "TRIM28 with GST tag (human), Q13263",
  "assay": "pull-down; GST-TRIM28 and HA-Flag tagged telosome/shelterin subunits co-transfected into HEK293T; NETN lysate, GST beads over 4 h, three washes with NETN, western blot",
  "details": "remark: other sources report otherwise",
  "note": "These are yes or no findings as the source states them, for the method shown. In cells and extracts the contact can be indirect. Some binding calls cover weakened binding; strength is not graded here. Where a sequence is shown, tags or fusion partners need not be part of it.",
  "data": [
    {"binder": "B1", "values": [
      {"measurement": "binding", "value": "binds"}
    ]}
  ]
}
